{
  "sequences": {"note": "Amino acid sequences for entries named in this document (tags omitted). Residues count along the entry.", "UniProt P05231, residues 30-212": "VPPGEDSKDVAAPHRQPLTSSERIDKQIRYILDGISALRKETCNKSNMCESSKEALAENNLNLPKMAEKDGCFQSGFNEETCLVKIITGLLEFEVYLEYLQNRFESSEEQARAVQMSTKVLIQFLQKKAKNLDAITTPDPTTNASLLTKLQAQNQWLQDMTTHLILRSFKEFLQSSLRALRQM"},
  "source": "patent US20160046678A1",
  "about": "(ZYNGENIA, published 2016)",
  "note": "No constants are given. Whether binding was seen depends on the method and setting. Some binding calls cover weakened binding; strength is not graded here.",
  "data": [
    {"biological_target": "IL6 (UniProt P05231)", "test": "MRD identification, Example 48", "values": [
      {"binder": "WQCYYRLCMGYPLGILCS", "note": "[ILB403]", "binding": "binds"},
      {"binder": "FRFATFFCYWDPLLMSCR", "note": "[ILB404]", "binding": "binds"},
      {"binder": "LTFLFYRCSWESVTPGCI", "note": "[ILB405]", "binding": "binds"},
      {"binder": "LLLSTYWCSWDPLLMDCN", "note": "[ILB406]", "binding": "binds"},
      {"binder": "SLWLTVLCPWDPLLMACI", "note": "[ILB407]", "binding": "binds"},
      {"binder": "TSGLCVWDPLMMSCASLL", "note": "[ILB408]", "binding": "binds"},
      {"binder": "LIMGCPWDPLLMLCQERR", "note": "[ILB409]", "binding": "binds"},
      {"binder": "SNPICIWDPLLMRCIWYQ", "note": "[ILB410]", "binding": "binds"},
      {"binder": "QSFLMRGCAWDPLLMQCI", "note": "[ILB412]", "binding": "binds"},
      {"binder": "LVVNCPWDPLLMACAVNV", "note": "[ILB414]", "binding": "binds"},
      {"binder": "STRDCYWDPLLMTCINYI", "note": "[ILB418]", "binding": "binds"},
      {"binder": "SYQVCCWDPLLMTCQRAR", "note": "[ILB419]", "binding": "binds"},
      {"binder": "YHWQLNGCVWHPLMINCL", "note": "[ILB421]", "binding": "binds"},
      {"binder": "LCLWDALLMECRIHSFDS", "note": "[ILB423]", "binding": "binds"},
      {"binder": "FCVWDPLLMHCRFTHDRM", "note": "[ILB425]", "binding": "binds"},
      {"binder": "SMTMCGWNPLGMWCHSLG", "note": "[ILB426]", "binding": "binds"},
      {"binder": "TLVSLGLCAWDPLLMSCA", "note": "[ILB428]", "binding": "binds"},
      {"binder": "SFLFYSSCVWDPLLMQCG", "note": "[ILB429]", "binding": "binds"},
      {"binder": "TLDNCAWDPLLMRCWGQW", "note": "[ILB430]", "binding": "binds"},
      {"binder": "SSIYCLWDPLLMRCATPL", "note": "[ILB431]", "binding": "binds"},
      {"binder": "RCPWDPLMMMCIEEMYTD", "note": "[ILB432]", "binding": "binds"},
      {"binder": "LCSWDPLMMRCVVMDSLD", "note": "[ILB436]", "binding": "binds"},
      {"binder": "FFCLWHFCTGDPLKIHCM", "note": "[ILB437]", "binding": "binds"},
      {"binder": "QLFLTLNCSWDPLLMQCL", "note": "[ILB439]", "binding": "binds"},
      {"binder": "SYLGGLACAWDPLLMQCI", "note": "[ILB440]", "binding": "binds"},
      {"binder": "GFPECFWDPLLMDCTYWF", "note": "[ILB441]", "binding": "binds"},
      {"binder": "VFPWCYWDPLMMDCAIQN", "note": "[ILB445]", "binding": "binds"},
      {"binder": "FCVWDPLLMDCSGNTFYF", "note": "[ILB450]", "binding": "binds"},
      {"binder": "TCAWDPLLMVCRYPCPAF", "note": "[ILB451]", "binding": "binds"},
      {"binder": "AALECPWDPLMMSCIKTS", "note": "[ILB452]", "binding": "binds"},
      {"binder": "YLPSWLSCSWDPLLMICS", "note": "[ILB453]", "binding": "binds"},
      {"binder": "HLSLLMDCCWDPLTMQCT", "note": "[ILB454]", "binding": "binds"},
      {"binder": "RWPFCHWDPLLMMCSVSY", "note": "[ILB455]", "binding": "binds"},
      {"binder": "LPLLRFPCDGKQLWKFCL", "note": "[ILB457]", "binding": "binds"},
      {"binder": "QVSYCPWDPLLMQCQLSG", "note": "[ILB461]", "binding": "binds"},
      {"binder": "RSIECFWDPLMMECMGYV", "note": "[ILB463]", "binding": "binds"},
      {"binder": "LGMTFYVCPWDPLLMLCI", "note": "[ILB464]", "binding": "binds"},
      {"binder": "YYYSWPMCYWDPHMLFCL", "note": "[ILB465]", "binding": "binds"},
      {"binder": "PCYWDPLLMRCMLQVDNW", "note": "[ILB467]", "binding": "binds"},
      {"binder": "FFSDCNWDPLLMHCANKL", "note": "[ILB469]", "binding": "binds"},
      {"binder": "RPSLVPICYWDPLLMICI", "note": "[ILB470]", "binding": "binds"},
      {"binder": "NYFNCVWDPLRMDCQYFM", "note": "[ILB471]", "binding": "binds"},
      {"binder": "DWQYYSSKTYGQAGQGSATGGSSFNEDCMWDPLLMDCAYSP", "note": "[ILB473]", "binding": "binds"},
      {"binder": "PDWITWQPAWGQAGQGSFNEDCMWDPLLMDCAYSP", "note": "[ILB474]", "binding": "binds"},
      {"binder": "NMYHEHAAWGQAGQGSATGGSSFNEDCMWDPLLMDCAYSP", "note": "[ILB475]", "binding": "binds"},
      {"binder": "EVNHVEDFPAGQAGQGSFNEDCMWDPLLMDCAYSP", "note": "[ILB476]", "binding": "binds"},
      {"binder": "WYTHSLQMWGQAGQGSATGGSSFNEDCMWDPLLMDCAYSP", "note": "[ILB477]", "binding": "binds"},
      {"binder": "GPDVTQYVKFGQAGQGSFNEDCMWDPLLMDCAYSP", "note": "[ILB478]", "binding": "binds"},
      {"binder": "QSPSASHIMGGQAGQGSFNEDCMWDPLLMDCAYSP", "note": "[ILB479]", "binding": "binds"},
      {"binder": "GPVEESAPQYGQAGQGSATGGSSFNEDCMWDPLLMDCAYSP", "note": "[ILB480]", "binding": "binds"},
      {"binder": "WIMSLSWPMAGQAGQGSATGGSGSTASSFNEDCMWDPLLMDCAYSP", "note": "[ILB481]", "binding": "binds"},
      {"binder": "HVGWHAMNPWGQAGQGSFNEDCMWDPLLMDCAYSP", "note": "[ILB482]", "binding": "binds"},
      {"binder": "VWTAFIQMNSGQAGQGSATGGSSFNEDCMWDPLLMDCAYSP", "note": "[ILB483]", "binding": "binds"},
      {"binder": "PDWITWQPAWGQAGQGSATGGSSFNEDCMWDPLLMDCAYSP", "note": "[ILB485]", "binding": "binds"},
      {"binder": "VMWQWEEGHWGQAGQGSFNEDCMWDPLLMDCAYSP", "note": "[ILB486]", "binding": "binds"},
      {"binder": "TQEMWFTGINGQAGQGSATGGSSFNEDCMWDPLLMDCAYSP", "note": "[ILB487]", "binding": "binds"},
      {"binder": "DNWWRIWDKQGQAGQGSFNEDCMWDPLLMDCAYSP", "note": "[ILB488]", "binding": "binds"},
      {"binder": "VTWFMYQDRAGQAGQGSFNEDCMWDPLLMDCAYSP", "note": "[ILB489]", "binding": "binds"},
      {"binder": "LPPPCYWTTWGKECQMFD", "note": "[ILB490]", "binding": "binds"},
      {"binder": "VEPIPYTMMRGQAGQGSFNEDCMWDPLLMDCAYSP", "note": "[ILB491]", "binding": "binds"},
      {"binder": "RIVVMEQMQIGQAGQGSATGGSSFNEDCMWDPLLMDCAYSP", "note": "[ILB492]", "binding": "binds"},
      {"binder": "MCNPMESECHGQAGQGSATGGSSFNEDCMWDPLLMDCAYSP", "note": "[ILB493]", "binding": "binds"},
      {"binder": "VYWYDVKWTWGQAGQGSFNEDCMWDPLLMDCAYSP", "note": "[ILB494]", "binding": "binds"},
      {"binder": "DCEQNQTYCVGQAGQGSFNEDCMWDPLLMDCAYSP", "note": "[ILB495]", "binding": "binds"},
      {"binder": "WWPNYTWDHPQGSATGGSSFNEDCMWDPLLMDCAYSP", "note": "[ILB497]", "binding": "binds"}
    ]}
  ]
}
